Results deposited as PubChem BioAssay AID1259289 (Sanger Institute, 2017)

Screen: 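Find kinases whose loss adds to targeted drugs in killing bowel cancer cells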 (primary screen)
Cell system: human LS513 colorectal cancer cells
Knock-down reagent: siRNA pool against human genes
Treatment: anchor drug BYL719 at 1 µM, cetuximab at 5 µg/ml or trametinib at 10 nM, or DMSO vehicle alone; exposure time not given
Measurement: 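Survival versus non-targeting pool for each arm averaged over replicates, robust z-score in the arm with DMSO only, and synergy scores for BYL719, cetuximab or trametinib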
Scale: robust z-score, siRNA alone (DMSO): higher = more viable cells; strongly negative means essential; viability with DMSO vs control: higher = more viable cells; synergy score with BYL719: higher = stronger combined killing with BYL719; synergy score with cetuximab: higher = stronger combined killing with cetuximab; synergy score with trametinib: higher = stronger combined killing with trametinib
Rule for the call: 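a gene counts as active if its DMSO-only robust z-score falls under -3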
Calls: active = essential (knock-down alone); inactive = not essential
The whole screen tested 794 reagents; shown is a random part of them. Of all reagents, 16 (2%) are marked active. 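Active marks cell loss from silencing alone; drug synergy shows only in the synergy scores, not the calls.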 Unmarked entries are inactive. No viability above 1 is reported: the scale is capped. The record does not give: the amount of reagent, the time to read-out.

| target gene | robust z-score, siRNA alone (DMSO) | viability with DMSO vs control (fraction of control) | synergy score with BYL719 | synergy score with cetuximab | synergy score with trametinib |
| --- | --- | --- | --- | --- | --- |
| PAK3 | -0.825 | 0.803 | 0.0967 | 0.154 | -0.0428 |
| PIM2 | 0.206 | 0.95 | 0.132 | 0.222 | 0.042 |
| ACVR2A | 0.561 | 1 | -0.134 | -0.0659 | 0.00354 |
| CDK20 | 0.561 | 1 | 0.0717 | 0.0178 | 0.0648 |
| STK35 | 0.561 | 1 | 0.000869 | 0.0444 | 0.0252 |
| PRKCB | -0.686 | 0.823 | 0.117 | 0.113 | 0.00223 |
| MAGI2 | 0.561 | 1 | -0.00628 | -0.0968 | 0.0817 |
| TP53 | 0.561 | 1 | -0.0662 | 0.0118 | 0.0431 |
| NEK8 | -1.05 | 0.771 | 0.126 | -0.037 | -0.055 |
| PCK1 | 0.547 | 0.998 | 0.166 | 0.0782 | -0.0409 |
| RPS6KA4 | -0.0162 | 0.918 | 0.0807 | -0.116 | 0.0756 |
| CDK5R1 | 0.561 | 1 | -0.0905 | -0.0451 | 0.0395 |
| SGK2 | -0.472 | 0.853 | 0.225 | 0.168 | -0.0286 |
| CAMK2G | 0.0302 | 0.925 | -0.0605 | -0.142 | -0.0866 |
| CHEK2 | 0.561 | 1 | 0.00666 | 0.0322 | 0.0022 |
| RYK | 0.561 | 1 | 0.0275 | -0.0968 | -0.0215 |
| PI4KB | 0.561 | 1 | 0.00529 | 0.0157 | -0.0151 |
| SKAP1 | 0.561 | 1 | -0.134 | 0.0286 | 0.0313 |
| MAPKAPK3 | 0.561 | 1 | 0.0845 | 0.226 | 0.0743 |
| ACVR1B | 0.561 | 1 | -0.134 | -0.0968 | 0.0155 |

Already shown: entries from further up.
| target gene | robust z-score, siRNA alone (DMSO) | viability with DMSO vs control (fraction of control) | synergy score with BYL719 | synergy score with cetuximab | synergy score with trametinib |
| --- | --- | --- | --- | --- | --- |
| PRKCB | -0.686 | 0.823 | 0.117 | 0.113 | 0.00223 |
| MAGI2 | 0.561 | 1 | -0.00628 | -0.0968 | 0.0817 |
